Record: PubChem BioAssay AID1259272 (Sanger Institute, 2017)

- Aim: 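Kinome-wide siRNA search for genes whose silencing boosts targeted drug effects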 (primary screen)
- System: SW1116 human colorectal cancer cells
- Reagents: siRNA pool against human genes
- Conditions: anchor drugs BYL719 (1 µM), cetuximab (5 µg/ml) or trametinib (10 nM), or DMSO vehicle; exposure length not given
- Detection: 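Cell survival as a fraction of wells given a non-targeting pool, averaged over replicates; robust z-score without drug; synergy score for each of BYL719, cetuximab and trametinib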
- Scale: viability z-score, no drug: higher = more cells remaining; strongly negative means essential gene
- Hit rule: 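a robust z-score under -3 with siRNA and no drug marks the gene essential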
- Meaning of the calls: active = essential (knock-down alone); inactive = no change
The deposit covers 794 reagents; below is a random part of them. Of all reagents, 7 (0.88%) got an active call. 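Essential calls reflect knock-down without drug only, not synergy with drugs; drug exposure length not given.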 A number with no mark means an inactive call. Further read-outs or replicates are left out here. Reagent sequences are not shown. The record does not give: the amount of reagent, the time to read-out.

CDK20 (GeneID 23552) — viability z-score, no drug = -2.21
BCOR (GeneID 54880) — viability z-score, no drug = 0.842
PAK4 (GeneID 10298) — viability z-score, no drug = 0.464
TP53RK (GeneID 112858) — viability z-score, no drug = -0.405
MAP3K13 (GeneID 9175) — viability z-score, no drug = 0.842
GRK6 (GeneID 2870) — viability z-score, no drug = 0.842
STYK1 (GeneID 55359) — viability z-score, no drug = -1.15
EEF2K (GeneID 29904) — viability z-score, no drug = -2.81
NTN4 (GeneID 59277) — viability z-score, no drug = -1.12
STK16 (GeneID 8576) — viability z-score, no drug = 0.842
PRKCD (GeneID 5580) — viability z-score, no drug = 0.0239
FN3KRP (GeneID 79672) — viability z-score, no drug = -1.69
ELF3 (GeneID 1999) — viability z-score, no drug = 0.842
ACVR1C (GeneID 130399) — viability z-score, no drug = 0.842

Continued, starting with the last 4 of the part before.
PRKCD (GeneID 5580) — viability z-score, no drug = 0.0239
FN3KRP (GeneID 79672) — viability z-score, no drug = -1.69
ELF3 (GeneID 1999) — viability z-score, no drug = 0.842
ACVR1C (GeneID 130399) — viability z-score, no drug = 0.842
DGKH (GeneID 160851) — viability z-score, no drug = -0.0581
CDK11B (GeneID 984) — viability z-score, no drug = 0.842
LMTK2 (GeneID 22853) — viability z-score, no drug = -0.847
SMC1A (GeneID 8243) — viability z-score, no drug = -1.35
PRKACG (GeneID 5568) — viability z-score, no drug = 0.842
ERBB4 (GeneID 2066) — viability z-score, no drug = 0.842
HIPK3 (GeneID 10114) — viability z-score, no drug = 0.801
TYRO3 (GeneID 7301) — viability z-score, no drug = -0.774
TTK (GeneID 7272) — viability z-score, no drug = -0.364
FGFR3 (GeneID 2261) — viability z-score, no drug = 0.708
MATK (GeneID 4145) — viability z-score, no drug = 0.842
CDK6 (GeneID 1021) — viability z-score, no drug = -0.376
FLT4 (GeneID 2324) — viability z-score, no drug = -1.96
PIP5K1B (GeneID 8395) — viability z-score, no drug = 0.842
